PubChem BioAssay AID686943, Drosophila RNAi Screening Center | 2013
The screen tested about 23,000 reagents; this is a random part of those that have a named target and a result. 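Extra replicates exist only for a retested subset of genes; insulin dose and duration not given; both raised and lowered dpERK matter.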 A plus sign joins genes that one reagent is predicted to hit. The record does not give: the amount of reagent, the time to read-out.

Assay: 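Knockdowns that increase or decrease active ERK after insulin receptor stimulation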 (primary screen)
Cell system: Drosophila S2R+ haemocyte-like cells expressing YFP-tagged ERK (Rolled)
Reagents: long dsRNA against Drosophila genes
Challenge: insulin stimulation versus unstimulated cells; dose and duration not given
Measured: 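Per-plate z-scores of phospho-ERK immunostaining normalised to YFP-tagged ERK, measured with and without insulin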
Scale: replicate 1, z-score of dpERK with insulin and replicate 2, z-score of dpERK with insulin: higher = more active ERK per ERK-YFP after insulin; replicate 1, z-score of dpERK under basal conditions: higher = more basal active ERK per ERK-YFP; replicate 1, z-score of ERK-YFP with insulin: higher = more YFP-tagged ERK signal

predicted target | dsRNA | replicate 1, z-score of dpERK with insulin | replicate 2, z-score of dpERK with insulin | replicate 1, z-score of dpERK under basal conditions | replicate 1, z-score of ERK-YFP with insulin
CG14613 | DRSC20625 | 0.25 | -0.85 | -0.57 | 0.09
RpL31 | DRSC06716 | -1.87 | -1.58 | -2.48 | -2.73
Cln7 | DRSC11005 | 0.34 | -0.19 | -0.52 | -0.52
CG7715 | DRSC16301 | 0.4 | 1.52 | 0.57 | 0.05
Mcr | DRSC03366 | -0.15 | -0.18 | -0.47 | 0.49
SdhAL | DRSC10539 | 0.49 | 0.35 | -0.04 | 0.12
Actn | DRSC17724 | -0.07 | 0.55 | -0.49 | -0.24
Faf2 | DRSC03325 | 0.58 | 0.98 | 0.14 | -0.46
ND-MNLL | DRSC18159 | -0.84 | -1.6 | -0.34 | 0.31
Sgp | DRSC02195 | 0.59 | -1.8 | 1.66 | 0.19
oys | DRSC05203 | -1.87 | -1.77 | -1.96 | -0.59
oys | DRSC06751 | 0.35 | 0.01 | 0.31 | -0.27
CG4586 | DRSC18373 | -0.74 | -0.17 | -0.41 | 0
THADA | DRSC19675 | 0.35 | 0.01 | 0.08 | 0.08
Pgant3 | DRSC05942 | -0.22 | -0.24 | -0.75 | 0.43
CG7276 | DRSC10797 | 0.04 | -0.31 | -0.68 | -0.25
Rad1 + Sws1 | DRSC00778 | -0.43 | 0.05 | -0.52 | -0.15
CG42323 | DRSC19629 | 0.3 | -0.1 | -0.54 | -0.29
CG42323 | DRSC21397 | 0.22 | 0.25 | 1.21 | -0.35
opm | DRSC20141 | 0.41 | 1.09 | -0.32 | 0.47
opm | DRSC22135 | 2.74 | 0.81 | 1.07 | -0.19
CG13299 | DRSC09973 | 0.27 | -0.08 | – | 0.01
Ucp4B + asRNA:CR43465 | DRSC02665 | -0.58 | 0.6 | 0 | 1.07
side-V | DRSC04188 | 0.09 | 0.04 | -0.77 | -0.57
side-V | DRSC04189 | -1.27 | -1.02 | 0.17 | 0.78
side-V | DRSC22266 | -1.85 | -1.59 | -0.16 | 0.12
Pgm1 | DRSC10490 | 0.73 | 0.15 | -0.81 | 0.18
Nepl18 | DRSC14879 | 0.48 | -0.09 | -0.87 | 0.09
CG8777 | DRSC07263 | 0.32 | -0.28 | -0.62 | -0.38

Records listed so far whose gene name starts with N or n (2):
predicted target | dsRNA | replicate 1, z-score of dpERK with insulin | replicate 2, z-score of dpERK with insulin | replicate 1, z-score of dpERK under basal conditions | replicate 1, z-score of ERK-YFP with insulin
ND-MNLL | DRSC18159 | -0.84 | -1.6 | -0.34 | 0.31
Nepl18 | DRSC14879 | 0.48 | -0.09 | -0.87 | 0.09

Continued.
predicted target | dsRNA | replicate 1, z-score of dpERK with insulin | replicate 2, z-score of dpERK with insulin | replicate 1, z-score of dpERK under basal conditions | replicate 1, z-score of ERK-YFP with insulin
Nedd8 | DRSC02092 | 0.97 | 0.67 | -0.2 | 0.02
Ntan1 | DRSC07546 | 0.44 | 1.49 | 0.35 | 0.76
MED8 | DRSC06426 | 3.32 | 1.19 | -1.48 | -0.74
CG17404 | DRSC15234 | 0.44 | 0.12 | 1.11 | 0.16
CG30048 | DRSC22205 | -0.31 | 0.45 | -0.35 | -0.6
CG33111 | DRSC14208 | 0.86 | -0.18 | 0.47 | 0.36
CG33111 | DRSC14444 | 1.2 | 0.08 | -0.06 | -0.07
CG15111 | DRSC21467 | -0.1 | 0.56 | -0.28 | 0.89
CG12091 | DRSC08251 | 0.18 | 0.34 | -0.48 | 0.19
wg | DRSC03636 | -0.01 | 0.16 | -0.13 | 0.96
CG2616 | DRSC15440 | -0.36 | 0.27 | -0.34 | 0.45
CG13481 | DRSC10023 | -0.12 | 0.3 | 0.56 | -0.09
pbl | DRSC11381 | -0.94 | -1.28 | 0.73 | -0.67
Marf | DRSC18329 | -0.31 | -2.78 | -0.67 | 0.02
bou | DRSC17924 | -0.02 | 0.32 | -0.18 | -0.09
ASPP | DRSC04305 | -2.08 | -3.1 | -1.94 | -3.04
Sox21b | DRSC10025 | -1.75 | -0.74 | -0.37 | -1.15
Sox21b | DRSC10634 | -2.73 | -2.67 | -2.48 | 1.01
Sox21b | DRSC22788 | -1.49 | -1.73 | -1.61 | -0.05
Dbct | DRSC19951 | 0.34 | 0.42 | -0.53 | 0.33
dpr15 | DRSC12891 | 0.04 | 0.01 | 0.35 | -0.16
dpr15 | DRSC14187 | -1.29 | -1.76 | -1.31 | -1.42
dpr15 | DRSC14188 | -1.47 | -1.48 | -1.37 | 0.64
IKKepsilon | DRSC03550 | -0.08 | 0.42 | 0.55 | -0.07
CG13050 | DRSC09931 | 0.4 | 1.94 | -0.44 | -0.52
CG14110 | DRSC10113 | -0.21 | 0.3 | -1.45 | 0.39
rb | DRSC18826 | -0.15 | -0.07 | -0.25 | 0.78
Kaz1-ORFB | DRSC08669 | 0.23 | -0.12 | -0.26 | 0.2
CG32117 | DRSC21652 | 0.68 | 0.44 | 2.29 | 0.04
CG10185 | DRSC14205 | 0.48 | 0.37 | -0.83 | 0
Prx6a | DRSC00565 | 0.34 | -0.08 | -0.25 | 0.3
ix | DRSC06325 | -0.24 | 0.42 | -1.56 | 0.15
CARPA | DRSC17905 | 2.04 | 1.5 | 0.84 | 0.08
CARPA | DRSC21633 | -0.39 | 0 | -0.68 | 1.09
CG15160 | DRSC02461 | -0.71 | 0.53 | -1.95 | 1.98
ph-d | DRSC18819 | -1.41 | -1.77 | -1.46 | -1.12
CG32074 | DRSC22246 | -0.26 | 0.25 | 0.59 | -0.22
Mur18B | DRSC20063 | -0.15 | 0.07 | -0.61 | 0.18
Hel25E | DRSC03342 | -0.29 | 1.09 | 6.05 | -4.48
capt | DRSC00676 | 0.74 | 1.43 | 0.12 | -0.31
capt | DRSC00806 | 0.43 | -0.63 | -0.34 | -0.4
MED30 | DRSC08516 | 0.32 | 0.55 | -0.66 | 0.41
Syn1 | DRSC11803 | 0.27 | -0.89 | -0.57 | -0.33
Syn1 | DRSC11804 | 0.04 | 0.48 | -0.26 | 0.31
